The target of test [1] is T1, DHHC21 ΔF233 (depilated mutant) (mouse (endogenous in spleen)) (UniProt Q9D270).
T1 sequence: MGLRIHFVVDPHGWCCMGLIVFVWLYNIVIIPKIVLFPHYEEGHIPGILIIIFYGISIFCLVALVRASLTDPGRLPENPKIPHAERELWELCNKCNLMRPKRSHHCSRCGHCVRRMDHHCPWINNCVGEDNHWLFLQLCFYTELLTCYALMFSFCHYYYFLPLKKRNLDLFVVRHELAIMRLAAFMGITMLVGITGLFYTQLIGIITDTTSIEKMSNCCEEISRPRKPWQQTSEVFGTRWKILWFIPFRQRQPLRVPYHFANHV
Briefly: co-IP; spleen lysates (1 mg; 1% dodecyl-β-D-maltoside in DPBS) of WT and depilated mice; anti-zDHHC21 polyclonal antibody overnight at 4°C, protein A agarose 1 h at RT, three washes in lysis buffer; western blot for STIM1.

Protein sequences, listed by entry. Tags and fused reporters are not part of them. Residues count along the entry.
UniProt P70302, residues 23-685: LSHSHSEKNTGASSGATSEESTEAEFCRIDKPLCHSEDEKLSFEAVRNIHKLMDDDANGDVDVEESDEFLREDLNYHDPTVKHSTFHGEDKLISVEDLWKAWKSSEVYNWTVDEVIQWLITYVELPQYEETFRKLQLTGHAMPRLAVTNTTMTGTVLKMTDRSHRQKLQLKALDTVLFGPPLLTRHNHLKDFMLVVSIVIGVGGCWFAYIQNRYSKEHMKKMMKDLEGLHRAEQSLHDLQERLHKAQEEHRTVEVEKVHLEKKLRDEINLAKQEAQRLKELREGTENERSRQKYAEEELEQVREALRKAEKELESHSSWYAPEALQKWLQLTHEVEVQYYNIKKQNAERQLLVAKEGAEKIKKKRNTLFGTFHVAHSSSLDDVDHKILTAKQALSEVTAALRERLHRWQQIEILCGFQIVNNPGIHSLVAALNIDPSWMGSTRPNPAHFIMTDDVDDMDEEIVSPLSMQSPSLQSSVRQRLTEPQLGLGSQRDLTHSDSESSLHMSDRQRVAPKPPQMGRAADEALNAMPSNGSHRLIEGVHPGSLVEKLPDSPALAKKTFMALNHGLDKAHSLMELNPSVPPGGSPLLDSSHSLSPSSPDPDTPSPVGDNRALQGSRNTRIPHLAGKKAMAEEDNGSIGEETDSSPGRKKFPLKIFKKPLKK

Test [2] addresses T2, DHHC21 (zDHHC21), wild type (mouse (endogenous in spleen)) (UniProt Q9D270).
T2 sequence: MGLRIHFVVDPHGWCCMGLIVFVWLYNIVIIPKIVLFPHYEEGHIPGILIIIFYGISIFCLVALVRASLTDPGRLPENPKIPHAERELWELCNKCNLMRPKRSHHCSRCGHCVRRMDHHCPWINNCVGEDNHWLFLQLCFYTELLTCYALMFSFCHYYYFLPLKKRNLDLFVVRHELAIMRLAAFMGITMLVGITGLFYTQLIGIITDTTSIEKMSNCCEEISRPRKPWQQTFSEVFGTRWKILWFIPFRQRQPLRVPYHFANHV
Described as above.

Results are given in words; binding and its absence hold for the method and conditions named. Binding seen in cells or lysates may run through a third protein. Some binding calls cover weakened binding; strength is not graded here.

Consider “stromal interaction molecule 1 (STIM1) (from UniProt P70302 23-685)”, for which the binding result in test [1] and in test [2] was “binds” throughout.
